We go through 61 molecules from PubChem BioAssay AID2685 (National Center for Advancing Translational Sciences (NCATS), 2010).

This is one part of the list. Shown are side measurements of this screen, not its main read-out; they come without a call. The list favours compounds with an active or inconclusive main result. Potencies come from curve fits of mixed quality, noted in brackets.

The nature of this assay: qHTS Assay for Lipid Storage Modulators in Drosophila S3 Cells.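 For cell number change: cells counted by Cell Tracker Red CMTPX staining in the red channel.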 The conditions noted are these: BODIPY lipid droplet fluorescence, 18-24 h; for cell number change: measured here: cell count max response, cells fed with added oleic acid. The gist of the method:
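Laser-scanning cytometry quantifies lipid droplet accumulation (500–530 nm total intensity; droplet/cell object ratio) in oleic acid-fed (400 uM added) Drosophila S3 cells treated with a concentration series. 20 uM Triacsin C defined 100% inhibition.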
(qHTS replaces the single test concentration by a dilution series.)

Where [1] appears, read: measured here: lipid fluorescence (Fed channel) AC50, cells fed with added oleic acid.
The mark [2] stands for this setting: measured here: cell number channel AC50, cells fed with added oleic acid.

Regarding `CCCc1nnc(NC(=O)CCC(=O)N2CCN(Cc3ccc(C)cc3C)CC2)s1`, the cell number change is 21.1%. Besides, the concentration at half-maximal activity (AC50) under setting [1] was 29.1 µM [rising, single point].

Consider `CCCCn1c(N)c(N(CCC(C)C)C(=O)C2=NN(c3cc(C)ccc3C)C(=O)CC2)c(=O)[nH]c1=O`, for which the cell number change was determined as 0.5%.

As for `CCN(C(=O)COC(=O)c1c(-c2ccccc2)noc1C)c1c(N)n(Cc2ccccc2)c(=O)[nH]c1=O`, the cell number change is -31.1%. For the same molecule, the AC50 under setting [1] was 13 µM [falling, partial curve].

`CCOC(=O)/C(=N\Nc1ccccc1[N+](=O)[O-])c1csc(N)n1`: the cell number change was -4.23%. Also, the AC50 under setting [1] was 6.51 µM [falling, single point].

For the molecule `COc1ccc(C2(c3ccc(OC)cc3)NC(=O)N(CC(=O)Nc3ccc(OC)c(OC)c3)C2=O)cc1`, the cell number change is -2.7%.

With `CCn1c(=O)c(C(=O)NCCc2ccccc2)c(O)c2ccccc21`, the cell number change is 290%. The AC50 under setting [2] is 25.9 µM [rising, single point]. For the same molecule, the AC50 under setting [1] was 14.6 µM [rising, partial curve].

As for `Cc1ccc(C2=[N+]([O-])C3(CCCCC/C3=N\O)N(O)C2(C)C)o1` (stereo unspecified), the cell number change was -21.9%. In addition, the AC50 under setting [1] is 20.6 µM [falling, single point].

For the molecule `CCCCC(Br)C(=O)Nc1ccc(S(=O)(=O)Nc2cc(C)nc(C)n2)cc1` (stereo unspecified), the cell number change was 28.2%. In addition, the AC50 under setting [2] was 2.31 µM [rising, full curve, poor fit].

`O=C(CSc1nc2ccccc2c(=O)n1-c1ccccc1)NCc1ccc2c(c1)OCO2`: the AC50 under setting [1] was 0.291 µM [rising, partial curve, poor fit].

Regarding `Oc1ccc(Nc2nc(Cl)nc(NCc3ccco3)n2)cc1`, the cell number change is -23%. Also, under setting [1], the AC50 was 29.1 µM [rising, single point].

On to `CCn1c(=O)c(C(=O)NNC(=O)c2ccccc2)c(O)c2ccccc21`, for which the cell number change was -10.5%. Also, the AC50 under setting [1] is 5.62 µM [falling, single point].

As to `O=C(NCCN1CCOCC1)c1cccc(S(=O)(=O)Nc2ccc(Br)cc2)c1`, the cell number change was -13.4%. For the same molecule, under setting [1], the AC50 is 16.4 µM [falling, single point].

`CCc1ccc(C(CC(=O)O)N2Cc3ccccc3C2=O)cc1` (stereo unspecified): the cell number change was -23.7%. In addition, the half-maximal activity concentration (AC50) under setting [1] is 16.4 µM [falling, partial curve, poor fit].

As to `COc1cccc(C(=O)C[n+]2ccccc2/C=N/O)c1`, the cell number change was 25.1%. Besides, the AC50 under setting [1] is 9.2 µM [rising, partial curve].

On to `CCS(=O)(=O)c1ccc2c(c1)N(S(=O)(=O)c1ccc(Cl)cc1)CC(C(=O)O)O2` (stereo unspecified), for which the cell number change is -45.4%.

Take `c1ccn2cc(CSC3=NCCS3)nc2c1`: the AC50 is 6.51 µM [rising, single point] under setting [2] and 6.51 µM [rising, single point] under setting [1].

In the case of `Cc1cccc(NC(=O)NCCN2CCCCC2)c1`, the cell number change worked out at 3.7%.

Take `Nc1cccc(C(=O)N/N=C/c2ccsc2)c1`: the cell number change amounted to 15.2%. Also, the AC50 under setting [1] is 0.461 µM [falling, single point].

In the case of `CCCCn1c(N)c(N(CC(C)C)C(=O)c2ccc(OCc3c(C)noc3C)cc2)c(=O)[nH]c1=O`, the cell number change stood at 0.321%. Further, the half-maximal activity concentration (AC50) under setting [1] was 2.31 µM [rising, full curve].

For `CCOc1ccc(NC(=O)CC(c2ccccc2)c2ccc(F)cc2)cc1` (stereo unspecified), the cell number change came to 11.1%.

For the molecule `COc1cccc(NC(=O)CN2C(=O)CSc3ccc(S(=O)(=O)N4CCC(C)CC4)cc32)c1`, the cell number change is 6.1%. For the same molecule, the AC50 under setting [1] was 0.13 µM [falling, full curve, poor fit].

As to `Cc1cc(CNC(=O)[C@H]2C[C@@H]2[C@H](NP(=O)(c2ccccc2)c2ccccc2)c2ccccc2)nn1C`, the cell number change was 0.533%. For the same molecule, the AC50 under setting [1] is 14.6 µM [rising, single point].

For the molecule `COc1cc(NC(=O)Cn2c([N+](=O)[O-])cnc2C)c(OC)cc1Cl`, the cell number change was -11.3%.

As to `S=C(Nc1cccc(Cl)c1)N(CCCN1CCCC1)Cc1cccn1Cc1ccc(Cl)cc1`, the cell number change was -69.8%. Also, under setting [2], the AC50 was 29.1 µM [falling, single point]. In addition, the AC50 under setting [1] is 29.1 µM [falling, single point].

For `CCOC(=O)c1c(C)[nH]c(C(=O)NCc2ccco2)c1C`, the cell number change came to 22.1%. Besides, the half-maximal activity concentration (AC50) under setting [2] is 0.0259 µM [rising, full curve, poor fit]. Further, the AC50 under setting [1] is 2.31 µM [rising, partial curve, poor fit].

Regarding `O=C(/C=C/c1ccc(S(=O)(=O)N2CCOCC2)cc1)N(CCO)Cc1ccccc1`, the cell number change was determined as 9.59%. Also, under setting [2], the AC50 was 4.11 µM [falling, single point]. The AC50 under setting [1] was 4.11 µM [falling, single point].

Consider `CC(Sc1nc(O)c(-c2ccccc2)c(=O)[nH]1)C(=O)Nc1ccc(Cl)cc1` (stereo unspecified), for which the cell number change stood at 22%. The AC50 under setting [1] was 0.00461 µM [rising, full curve, poor fit].

With `c1ccc(-c2c(-c3ccccc3)n(Cc3ccco3)c3ncnc(NCCCn4ccnc4)c23)cc1`, the cell number change was -87.6%.

For `COc1ccc(C)cc1NC(=O)CSc1nnc2ccc(-c3ccccn3)nn12`, the cell number change is -17.6%. The half-maximal activity concentration (AC50) under setting [1] was 18.4 µM [falling, partial curve, poor fit].

In the case of `COc1ccc(NCC(=O)N/N=C/C=C/c2ccccc2[N+](=O)[O-])cc1`, the cell number change came to 14%. In addition, the AC50 under setting [2] is 0.82 µM [rising, full curve, poor fit]. Besides, under setting [1], the AC50 is 0.517 µM [rising, full curve].

For `Cn1nc(C(=O)OCC(=O)c2ccc[nH]2)c2ccccc2c1=O`, the cell number change is -108%. The AC50 under setting [2] was 18.4 µM [falling, partial curve]. Besides, the AC50 under setting [1] was 29.1 µM [falling, single point].

With `Cn1nnnc1SCC(=O)N1CCc2ccccc21`, the cell number change was -24%. For the same molecule, the AC50 under setting [1] is 7.31 µM [falling, partial curve].

Turning to `COC(=O)C1=C(C)OC(N)=C(C#N)C1c1ccccc1` (stereo unspecified), the cell number change came out at 5.68%. For the same molecule, the AC50 under setting [1] was 0.0206 µM [rising, full curve, poor fit].

Regarding `O/N=C1/CCc2cccc3cccc1c23`, the cell number change amounted to 8.12%.

As for `CCC(=O)Nc1ccc(Cl)c(NC(=O)c2ccc(Br)o2)c1`, the cell number change is -5.87%. Moreover, the AC50 under setting [1] is 0.013 µM [rising, full curve, poor fit].

With `COc1ccc(NC(=O)CCn2c(=S)[nH]c3ccccc3c2=O)cc1`, the cell number change worked out at 85.8%. In addition, the AC50 under setting [2] is 25.9 µM [rising, partial curve, poor fit].

Consider `COc1ccccc1NC(=O)Oc1ccc(C(C)=O)cc1`, for which the cell number change worked out at 2.53%.

For `CC1(C)CC(=O)C2=C(C1)OC1=C(C(=O)CC(C)(C)C1)C2(C)C`, the cell number change is -65.8%. The AC50 under setting [2] was 2.31 µM [rising, partial curve, poor fit]. Also, the AC50 under setting [1] is 29.1 µM [falling, single point].

With `C=CCc1ccc(OCCCN2CCCC(C)C2)c(OC)c1` (stereo unspecified), the cell number change amounted to 22.8%. Besides, under setting [1], the AC50 is 29.1 µM [rising, single point].

On to `CC(=O)NCc1ccc(C(=O)CN2C(=O)NC3(CCCCC3C)C2=O)s1` (stereo unspecified), for which, under setting [1], the half-maximal activity concentration (AC50) is 5.17 µM [rising, partial curve, poor fit].

`COc1ccc(CCNC(=O)CN2C(=O)NC(C)(c3ccc([N+](=O)[O-])cc3)C2=O)cc1` (stereo unspecified): the cell number change amounted to 21.3%. The AC50 under setting [2] was 1.46 µM [rising, partial curve].

As for `COc1ccc(CNC(=O)C2CCN(S(=O)(=O)c3ccc4c(c3)NC(=O)CO4)CC2)cc1`, the cell number change turned out to be 20.1%.

Take `CCNCCNC(=O)c1c(O)c2cccc3c2n(c1=O)CCC3`: the cell number change is 1.06%. Besides, the AC50 under setting [1] was 0.00461 µM [rising, full curve, poor fit].

On to `Cc1ccnc(NC(=O)c2cccc([N+](=O)[O-])c2C)c1`, for which the cell number change is -14.4%.

Take `COc1cccc(N(CC(=O)NC2CCCC2)C(=O)CCC(=O)Nc2nccs2)c1`: the cell number change was 55.6%. Moreover, the half-maximal activity concentration (AC50) under setting [2] was 29.1 µM [rising, single point].

As for `CCOC(=O)CSc1nc(C)cc(C)n1`, under setting [1], the concentration at half-maximal activity (AC50) is 20.6 µM [falling, partial curve].

For the molecule `Nc1ccc(S(=O)(=O)c2ccc(Cl)cc2)cc1`, the cell number change was -47.6%. Also, under setting [2], the AC50 is 29.1 µM [falling, single point]. The AC50 under setting [1] was 29.1 µM [falling, single point].

`COc1cc(OC)c(C(=O)Oc2ccc3c(c2)OCO3)cc1OC`: the cell number change worked out at 39.2%. In addition, the AC50 under setting [2] was 0.164 µM [rising, full curve]. The AC50 under setting [1] was 0.00517 µM [rising, full curve, poor fit].

With `COc1ccc(C(=O)n2ncc(C#N)c2N)cc1`, the cell number change was 9.77%. For the same molecule, the AC50 under setting [1] was 23.1 µM [falling, partial curve, poor fit].

Regarding `COCc1c(C(=O)N2CCN(Cc3nc4ccccc4s3)CC2)oc2ccccc12`, the cell number change was -0.535%. Moreover, the AC50 under setting [1] was 2.06 µM [falling, partial curve, poor fit].

For the molecule `Cc1cc(C)c(C#N)c(N2CCN(c3ccccc3)CC2)n1`, the cell number change was determined as 14.5%. For the same molecule, the AC50 under setting [1] is 6.51 µM [rising, partial curve, poor fit].

For the molecule `COc1cccc(/C=N/n2c(-c3cccs3)n[nH]c2=S)c1`, the cell number change was found to be 32.8%. The AC50 under setting [2] was 8.2 µM [rising, partial curve].

On to `CCOC(=O)c1[nH]c(C)c(C(=O)c2ccc(C)cc2)c1C`, for which the cell number change was found to be 78.3%. In addition, the AC50 under setting [2] was 16.4 µM [rising, partial curve]. Further, the AC50 under setting [1] is 4.61 µM [rising, partial curve].

With `COc1cccc(NC(=O)c2ccc3nsnc3c2)c1`, the cell number change turned out to be 15.1%.

Take `O=C(c1ccc(S(=O)(=O)N2CCCC2)cc1)N1CCCc2ccccc21`: the cell number change stood at 118%. Further, under setting [2], the AC50 is 8.2 µM [rising, partial curve].

Regarding `CCN(CC)C(=O)CSc1nnnn1-c1ccc(F)c(Cl)c1`, the cell number change was determined as 38.5%. Under setting [2], the AC50 was 20.6 µM [rising, single point].

As for `CN(CCOCCOc1ccc(F)cc1)Cc1ccccc1`, the cell number change is 19.6%.

As for `Nn1c(SCC(=O)Nc2cccc(F)c2)nnc1C1CCCCC1`, the cell number change worked out at 38.2%. The AC50 under setting [2] is 20.6 µM [rising, single point].

`Cc1ccc(N2C(=O)C3CCCN3C2=S)cc1C` (stereo unspecified): the cell number change was -17%. For the same molecule, the AC50 under setting [2] is 0.082 µM [falling, full curve, poor fit].

Consider `Cc1c(Cl)cccc1NC(=O)[C@@H](NC(=O)c1ccccc1Cl)C(C)C`, for which the cell number change was -3.3%. Further, the AC50 under setting [1] was 0.731 µM [rising, full curve, poor fit].

With `Cc1ccccc1SCC(=O)Nc1cc(C(F)(F)F)ccc1N1CCOCC1`, the cell number change was 6%. The AC50 under setting [1] was 0.0651 µM [rising, full curve].

As a reminder, the AC50 is the midpoint of the concentration-response curve, whichever way the signal moves.
